{
  "source": "paper PMC9654567",
  "molecules": {"B1": {"name": "nucleoporin 93 (Nup93) (protein, UniProt Q8N1F7 1-819)", "chain": "MDTEGFGELLQQAEQLAAETEGISELPHVERNLQEIQQAGERLRSRTLTRTSQETADVKASVLLGSRGLDISHISQRLESLSAATTFEPLEPVKDTDIQGFLKNEKDNALLSAIEESRKRTFGMAEEYHRESMLVEWEQVKQRILHTLLASGEDALDFTQESEPSYISDVGPPGRSSLDNIEMAYARQIYIYNEKIVNGHLQPNLVDLCASVAELDDKSISDMWTMVKQMTDVLLTPATDALKNRSSVEVRMEFVRQALAYLEQSYKNYTLVTVFGNLHQAQLGGVPGTYQLVRSFLNIKLPAPLPGLQDGEVEGHPVWALIYYCMRCGDLLAASQVVNRAQHQLGEFKTWFQEYMNSKDRRLSPATENKLRLHYRRALRNNTDPYKRAVYCIIGRCDVTDNQSEVADKTEDYLWLKLNQVCFDDDGTSSPQDRLTLSQFQKQLLEDYGESHFTVNQQPFLYFQVLFLTAQFEAAVAFLFRMERLRCHAVHVALVLFELKLLLKSSGQSAQLLSHEPGDPPCLRRLNFVRLLMLYTRKFESTDPREALQYFYFLRDEKDSQGENMFLRCVSELVIESREFDMILGKLENDGSRKPGVIDKFTSDTKPIINKVASVAENKGLFEEAAKLYDLAKNADKVLELMNKLLSPVVPQISAPQSNKERLKNMALSIAERYRAQGISANKFVDSTFYLLLDLITFFDEYHSGHIDRAFDIIERLKLVPLNQESVEERVAAFRNFSDEIRHNLSEVLLATMNILFTQFKRLKGTSPSSSSRPQRVIEDRDSQLRSQARTLITFAGMIPYRTSGDTNARLVQMEVLMN"}, "B2": {"name": "SUN5 with Flag tag (pLVX-IRES-Puro-SUN5-Flag) (protein, UniProt Q8TC36 1-379)", "chain": "MPRSSRSPGDPGALLEDVAHNPRPRRIAQRGRNTSRMAEDTSPNMNDNILLPVRNNDQALGLTQCMLGCVSWFTCFACSLRTQAQQVLFNTCRCKLLCQKLMEKTGILLLCAFGFWMFSIHLPSKMKVWQDDSINGPLQSLRLYQEKVRHHSGEIQDLRGSMNQLIAKLQEMEAMSDEQKMAQKIMKMIHGDYIEKPDFALKSIGASIDFEHTSVTYNHEKAHSYWNWIQLWNYAQPPDVILEPNVTPGNCWAFEGDRGQVTIQLAQKVYLSNLTLQHIPKTISLSGSLDTAPKDFVIYGMEGSPKEEVFLGAFQFQPENIIQMFPLQNQPARAFSAVKVKISSNWGNPGFTCLYRVRVHGSVAPPREQPHQNPYPKRD"}},
  "test_in_all_cases": "co-IP; lysate of the SUN5 stable overexpression cell line (IP lysis solution with phosphatase inhibitor cocktail); antibodies pre-bound to magnetic beads, incubated with total protein at 4 °C overnight; Western blotting of the precipitate",
  "key": {"[1]": {"biological_target": "T1, SUN5 with Flag tag (pLVX-IRES-Puro-SUN5-Flag) (UniProt Q8TC36)", "T1 sequence": "B2 chain"}, "[2]": {"biological_target": "T1, SUN5 with Flag tag (pLVX-IRES-Puro-SUN5-Flag)", "remark": "listed apart in the source"}, "[3]": {"biological_target": "T2, nucleoporin 93 (Nup93) (human (endogenous in SUN5-OE CRC cells, LoVo or DLD-1)) (UniProt Q8N1F7)", "T2 sequence": "B1 chain"}},
  "note": "Like-named read-outs stand apart in the source and are kept apart here. These are yes or no findings as the source states them, for the method shown. In cells and extracts the contact can be indirect. Some results given as binding are weak or reduced against the parent protein; the word gives no strength. Sequences can lack the tags named with a protein.",
  "data": [
    {"molecule": "Nesprin2 (from UniProt Q8WXH0 1-6885)", "values": [
      {"measurement": "binding", "setting": "[1]", "result": "binds"}
    ]},
    {"molecule": "B1", "values": [
      {"measurement": "binding", "setting": "[2]", "result": "binds"}
    ]},
    {"molecule": "B2", "values": [
      {"measurement": "binding", "setting": "[3]", "result": "binds"}
    ]}
  ]
}
